{"source": "PubChem BioAssay AID1259405 (NCATS, 2018)", "test": "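Knock-downs that lift recombinant protein yield in hamster ovary cells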 (primary screen)", "system": "Chinese hamster CHO-K1 ovary cells with stable secreted eGFP expression", "knock-down reagent": "single siRNA against mouse genes, 0.8 pmol siRNA per well (2 µl of 400 nM stock)", "time to read-out": "3 days", "read-out": "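Per-well intracellular GFP measured by laser scanning cytometry, plus viability from ATP luminescence, each relative to plate median of non-targeting control wells, in %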", "reading the numbers": "GFP, % of control: higher = more GFP per well, higher productivity; viability (ATP), % of control: higher = more viable cells (more ATP)", "rule for the call": "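Called active when intracellular GFP, relative to negative control, is at or above 120%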", "note": "This is one part, drawn at random, of about 50,000 deposited reagents. In the full data, about 4,000 (8%) were called active. 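Mouse siRNA library applied to hamster cells; one well for each siRNA.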 Reagents against one gene are numbered here."}
{"gene": "Fbxo45", "reagent no.": 1, "GFP, % of control": 81.3, "viability (ATP), % of control": 62.4, "outcome": "inactive"}
{"gene": "Fbxo45", "reagent no.": 2, "GFP, % of control": 100, "viability (ATP), % of control": 67.6, "outcome": "inactive"}
{"gene": "Vmn1r13", "reagent no.": 1, "GFP, % of control": 136, "viability (ATP), % of control": 116, "outcome": "active"}
{"gene": "Vmn1r13", "reagent no.": 2, "GFP, % of control": 83.6, "viability (ATP), % of control": 65.8, "outcome": "inactive"}
{"gene": "Vmn1r13", "reagent no.": 3, "GFP, % of control": 76.6, "viability (ATP), % of control": 97.9, "outcome": "inactive"}
{"gene": "Tcf25", "reagent no.": 1, "GFP, % of control": 96.1, "viability (ATP), % of control": 71.3, "outcome": "inactive"}
{"gene": "Tcf25", "reagent no.": 2, "GFP, % of control": 41.4, "viability (ATP), % of control": 50.9, "outcome": "inactive"}
{"gene": "Tcf25", "reagent no.": 3, "GFP, % of control": 82.2, "viability (ATP), % of control": 81.4, "outcome": "inactive"}
{"gene": "Tmem270", "reagent no.": 1, "GFP, % of control": 103, "viability (ATP), % of control": 86.6, "outcome": "inactive"}
{"gene": "Tmem270", "reagent no.": 2, "GFP, % of control": 87.9, "viability (ATP), % of control": 52.2, "outcome": "inactive"}
{"gene": "Tmem270", "reagent no.": 3, "GFP, % of control": 63.1, "viability (ATP), % of control": 55.6, "outcome": "inactive"}
{"gene": "Ndufa9", "reagent no.": 1, "GFP, % of control": 72, "viability (ATP), % of control": 74.4, "outcome": "inactive"}
{"gene": "Ndufa9", "reagent no.": 2, "GFP, % of control": 63.6, "viability (ATP), % of control": 74.1, "outcome": "inactive"}
{"gene": "Ndufa9", "reagent no.": 3, "GFP, % of control": 61.5, "viability (ATP), % of control": 51.6, "outcome": "inactive"}
{"gene": "Sfpq", "reagent no.": 1, "GFP, % of control": 119, "viability (ATP), % of control": 109, "outcome": "inactive"}
{"gene": "Sfpq", "reagent no.": 2, "GFP, % of control": 69, "viability (ATP), % of control": 87.6, "outcome": "inactive"}
{"gene": "Ranbp17", "reagent no.": 1, "GFP, % of control": 100, "viability (ATP), % of control": 93.3, "outcome": "inactive"}
{"gene": "Ranbp17", "reagent no.": 2, "GFP, % of control": 78.5, "viability (ATP), % of control": 77.1, "outcome": "inactive"}
{"gene": "Ranbp17", "reagent no.": 3, "GFP, % of control": 59.1, "viability (ATP), % of control": 69.9, "outcome": "inactive"}
{"gene": "Il27", "reagent no.": 1, "GFP, % of control": 98.6, "viability (ATP), % of control": 104, "outcome": "inactive"}
{"gene": "Il27", "reagent no.": 2, "GFP, % of control": 89.2, "viability (ATP), % of control": 79.5, "outcome": "inactive"}
{"gene": "Il27", "reagent no.": 3, "GFP, % of control": 136, "viability (ATP), % of control": 52.4, "outcome": "active"}
{"gene": "Cdk16", "reagent no.": 1, "GFP, % of control": 88.1, "viability (ATP), % of control": 99.2, "outcome": "inactive"}
{"gene": "Xirp2", "reagent no.": 1, "GFP, % of control": 95, "viability (ATP), % of control": 90.1, "outcome": "inactive"}
{"gene": "Xirp2", "reagent no.": 2, "GFP, % of control": 78.5, "viability (ATP), % of control": 70.1, "outcome": "inactive"}
{"gene": "Xirp2", "reagent no.": 3, "GFP, % of control": 68.9, "viability (ATP), % of control": 82.7, "outcome": "inactive"}
{"gene": "Fsd1", "reagent no.": 1, "GFP, % of control": 135, "viability (ATP), % of control": 89.7, "outcome": "active"}
{"gene": "Fsd1", "reagent no.": 2, "GFP, % of control": 132, "viability (ATP), % of control": 109, "outcome": "active"}
{"gene": "Calu", "reagent no.": 1, "GFP, % of control": 82.5, "viability (ATP), % of control": 97.1, "outcome": "inactive"}
{"gene": "Calu", "reagent no.": 2, "GFP, % of control": 63.8, "viability (ATP), % of control": 78.9, "outcome": "inactive"}
{"gene": "Defb3", "reagent no.": 1, "GFP, % of control": 44.6, "viability (ATP), % of control": 35.4, "outcome": "inactive"}
{"gene": "Defb3", "reagent no.": 2, "GFP, % of control": 36.2, "viability (ATP), % of control": 53, "outcome": "inactive"}
{"gene": "Defb3", "reagent no.": 3, "GFP, % of control": 113, "viability (ATP), % of control": 86.2, "outcome": "inactive"}

5 neighbouring entries already listed:
{"gene": "Fbxo45", "reagent no.": 2, "GFP, % of control": 100, "viability (ATP), % of control": 67.6, "outcome": "inactive"}
{"gene": "Vmn1r13", "reagent no.": 1, "GFP, % of control": 136, "viability (ATP), % of control": 116, "outcome": "active"}
{"gene": "Vmn1r13", "reagent no.": 2, "GFP, % of control": 83.6, "viability (ATP), % of control": 65.8, "outcome": "inactive"}
{"gene": "Vmn1r13", "reagent no.": 3, "GFP, % of control": 76.6, "viability (ATP), % of control": 97.9, "outcome": "inactive"}
{"gene": "Tcf25", "reagent no.": 1, "GFP, % of control": 96.1, "viability (ATP), % of control": 71.3, "outcome": "inactive"}

Continued:
{"gene": "Hyou1", "reagent no.": 1, "GFP, % of control": 72.6, "viability (ATP), % of control": 69.1, "outcome": "inactive"}
{"gene": "Hyou1", "reagent no.": 2, "GFP, % of control": 69.9, "viability (ATP), % of control": 62.6, "outcome": "inactive"}
{"gene": "Hyou1", "reagent no.": 3, "GFP, % of control": 86.9, "viability (ATP), % of control": 93.2, "outcome": "inactive"}
{"gene": "Rbfox2", "reagent no.": 1, "GFP, % of control": 96.4, "viability (ATP), % of control": 75.5, "outcome": "inactive"}
{"gene": "Rbfox2", "reagent no.": 2, "GFP, % of control": 87.2, "viability (ATP), % of control": 84.5, "outcome": "inactive"}
{"gene": "Rbfox2", "reagent no.": 3, "GFP, % of control": 81.7, "viability (ATP), % of control": 56.3, "outcome": "inactive"}
{"gene": "Pabir2", "reagent no.": 1, "GFP, % of control": 47.7, "viability (ATP), % of control": 75.4, "outcome": "inactive"}
{"gene": "Pabir2", "reagent no.": 2, "GFP, % of control": 75.5, "viability (ATP), % of control": 74.7, "outcome": "inactive"}
{"gene": "Pabir2", "reagent no.": 3, "GFP, % of control": 92.5, "viability (ATP), % of control": 121, "outcome": "inactive"}
{"gene": "Fam149a", "reagent no.": 1, "GFP, % of control": 59.9, "viability (ATP), % of control": 70.4, "outcome": "inactive"}
{"gene": "Fam149a", "reagent no.": 2, "GFP, % of control": 77.9, "viability (ATP), % of control": 83.3, "outcome": "inactive"}
{"gene": "Fam149a", "reagent no.": 3, "GFP, % of control": 68.1, "viability (ATP), % of control": 90.3, "outcome": "inactive"}
{"gene": "Nkap", "reagent no.": 1, "GFP, % of control": 87.3, "viability (ATP), % of control": 80, "outcome": "inactive"}
{"gene": "Nkap", "reagent no.": 2, "GFP, % of control": 119, "viability (ATP), % of control": 108, "outcome": "inactive"}
{"gene": "Nkap", "reagent no.": 3, "GFP, % of control": 66.6, "viability (ATP), % of control": 50.6, "outcome": "inactive"}
{"gene": "Cyp2b19", "reagent no.": 1, "GFP, % of control": 70.1, "viability (ATP), % of control": 68.4, "outcome": "inactive"}
{"gene": "Cyp2b19", "reagent no.": 2, "GFP, % of control": 50.8, "viability (ATP), % of control": 50.3, "outcome": "inactive"}
{"gene": "Cyp2b19", "reagent no.": 3, "GFP, % of control": 95.7, "viability (ATP), % of control": 86.7, "outcome": "inactive"}
{"gene": "Ip6k2", "reagent no.": 1, "GFP, % of control": 22.4, "viability (ATP), % of control": 70, "outcome": "inactive"}
{"gene": "Ip6k2", "reagent no.": 2, "GFP, % of control": 48, "viability (ATP), % of control": 89.3, "outcome": "inactive"}
{"gene": "Ip6k2", "reagent no.": 3, "GFP, % of control": 78.2, "viability (ATP), % of control": 79.8, "outcome": "inactive"}
